The supplement of paper PMC7661543
The effect of the compound repeats well; differences between the knockouts mostly do not.

Tested on: SKBR3
Assay: relative cell number vs DMSO control (72 h) (% of DMSO); higher = less growth inhibition (more cells)
Protocol: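 QMAP-Seq: a pool of 5 breast cancer cell lines (ZR-75-1, SKBR3, HCC-38, MDA-MB-231, BT-20), each carrying 12 doxycycline-inducible Cas9 sgRNA perturbations (11 knockouts plus non-targeting sgNT), was treated with compounds for 72 h at four 10-fold doses (10 nM-10 uM or 1 nM-1 uM range). Barcodes were amplified and sequenced, and cell number was interpolated from 293T spike-in standard curves. The result is expressed as % of the median of DMSO wells. Two biological replicates.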

CCNC(=O)c1noc(-c2cc(C(C)C)c(O)cc2O)c1-c1ccc(CN2CCOCC2)cc1 [NVPAUY922]
Conditions	relative cell number
sgRNA knockout: sgATF3, 1 nM	114
sgRNA knockout: sgATF3, 10 nM	73.1
sgRNA knockout: sgATF3, 100 nM	35.1
sgRNA knockout: sgATF3, 1000 nM	28.6
sgRNA knockout: sgATF4, 1 nM	95.6
sgRNA knockout: sgATF4, 10 nM	71
sgRNA knockout: sgATF4, 100 nM	25.9
sgRNA knockout: sgATF4, 1000 nM	29.2
sgRNA knockout: sgATF6, 1 nM	94
sgRNA knockout: sgATF6, 10 nM	92.9
sgRNA knockout: sgATF6, 100 nM	34.7
sgRNA knockout: sgATF6, 1000 nM	26.7
sgRNA knockout: sgATG7, 1 nM	97.3
sgRNA knockout: sgATG7, 10 nM	73.9
sgRNA knockout: sgATG7, 100 nM	39.4
sgRNA knockout: sgATG7, 1000 nM	28.7
sgRNA knockout: sgERN1, 1 nM	88.4
sgRNA knockout: sgERN1, 10 nM	86.7
sgRNA knockout: sgERN1, 100 nM	40.8
sgRNA knockout: sgERN1, 1000 nM	34.3
sgRNA knockout: sgHSF1, 1 nM	109
sgRNA knockout: sgHSF1, 10 nM	63.9
sgRNA knockout: sgHSF1, 100 nM	25.3
sgRNA knockout: sgHSF1, 1000 nM	31.8
sgRNA knockout: sgHSF2, 1 nM	97.1
sgRNA knockout: sgHSF2, 10 nM	67.2
sgRNA knockout: sgHSF2, 100 nM	30.6
sgRNA knockout: sgHSF2, 1000 nM	26
sgRNA knockout: sgKEAP1, 1 nM	114
sgRNA knockout: sgKEAP1, 10 nM	67.3
sgRNA knockout: sgKEAP1, 100 nM	38.3
sgRNA knockout: sgKEAP1, 1000 nM	34.7
sgRNA knockout: sgNFE2L2, 1 nM	95.57
sgRNA knockout: sgNFE2L2, 10 nM	69.8
sgRNA knockout: sgNFE2L2, 100 nM	25.9
sgRNA knockout: sgNFE2L2, 1000 nM	37.8
sgRNA knockout: sgSLC35F2, 1 nM	102
sgRNA knockout: sgSLC35F2, 10 nM	70.2
sgRNA knockout: sgSLC35F2, 100 nM	34.2
sgRNA knockout: sgSLC35F2, 1000 nM	32.2
sgRNA knockout: sgXBP1, 1 nM	102
sgRNA knockout: sgXBP1, 10 nM	72.3
sgRNA knockout: sgXBP1, 100 nM	30.5
sgRNA knockout: sgXBP1, 1000 nM	25.9

O=C(Nc1ccc([N+](=O)[O-])cc1Cl)c1cc(Cl)ccc1O [Niclosamide]
Conditions	relative cell number
sgRNA knockout: sgATF3, 10 nM	84.1
sgRNA knockout: sgATF3, 100 nM	78.9
sgRNA knockout: sgATF3, 1000 nM	116
sgRNA knockout: sgATF3, 10000 nM	66.2
sgRNA knockout: sgATF4, 10 nM	89.8
sgRNA knockout: sgATF4, 100 nM	79.1
sgRNA knockout: sgATF4, 1000 nM	101
sgRNA knockout: sgATF4, 10000 nM	40.3
sgRNA knockout: sgATF6, 10 nM	96.4
sgRNA knockout: sgATF6, 100 nM	79.4
sgRNA knockout: sgATF6, 1000 nM	104
sgRNA knockout: sgATF6, 10000 nM	58
sgRNA knockout: sgATG7, 10 nM	105
sgRNA knockout: sgATG7, 100 nM	97.7
sgRNA knockout: sgATG7, 1000 nM	120
sgRNA knockout: sgATG7, 10000 nM	54.8
sgRNA knockout: sgERN1, 10 nM	83.5
sgRNA knockout: sgERN1, 100 nM	100
sgRNA knockout: sgERN1, 1000 nM	131
sgRNA knockout: sgERN1, 10000 nM	62.2
sgRNA knockout: sgHSF1, 10 nM	103
sgRNA knockout: sgHSF1, 100 nM	86
sgRNA knockout: sgHSF1, 1000 nM	100
sgRNA knockout: sgHSF1, 10000 nM	54.8
sgRNA knockout: sgHSF2, 10 nM	80.1
sgRNA knockout: sgHSF2, 100 nM	89.1
sgRNA knockout: sgHSF2, 1000 nM	102
sgRNA knockout: sgHSF2, 10000 nM	47.6
sgRNA knockout: sgKEAP1, 10 nM	78.3
sgRNA knockout: sgKEAP1, 100 nM	99.54
sgRNA knockout: sgKEAP1, 1000 nM	105
sgRNA knockout: sgKEAP1, 10000 nM	58.237
sgRNA knockout: sgNFE2L2, 10 nM	89.1
sgRNA knockout: sgNFE2L2, 100 nM	98.2
sgRNA knockout: sgNFE2L2, 1000 nM	105
sgRNA knockout: sgNFE2L2, 10000 nM	48.1
sgRNA knockout: sgSLC35F2, 10 nM	95.4
sgRNA knockout: sgSLC35F2, 100 nM	71.1
sgRNA knockout: sgSLC35F2, 1000 nM	116
sgRNA knockout: sgSLC35F2, 10000 nM	57.4
sgRNA knockout: sgXBP1, 10 nM	80.5
sgRNA knockout: sgXBP1, 100 nM	85.1
sgRNA knockout: sgXBP1, 1000 nM	118
sgRNA knockout: sgXBP1, 10000 nM	54.4
